Hit rate of the full screen: of about 580,000 compounds, about 6,100 (1.1%) were called active. Inconclusive results, whose numbers are uncertain, are shown with a selection of clear calls. Calls come from the whole dose curve; as a rule, active = well fitted inhibition curve with a large enough effect; inconclusive = small, poorly fitted or top-dose-only effect, or another doubt; inactive = no such curve, though single readings can be large or run the other way. A potency beside an inconclusive call is a rough fit, not a confirmed value.
Each molecule was assayed against Polyunsaturated fatty acid lipoxygenase ALOX12 (Homo sapiens) (UniProt P18054) (assay: Primary qHTS assay for inhibitors of human arachidonate 12S-lipoxygenase (ALOX12): Round 2). Conditions: purified 12hLO, xylenol orange hydroperoxide absorbance; series mostly up to 108 µM.
Procedure, shortened: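 Purified human 12hLO (150 nM final) in 25 mM Hepes, 0.01% Triton X-100, pH 7.0 was preincubated 15 min at room temperature with compound. Then 40 uM arachidonic acid was added, 30 min. Hydroperoxide was read by Fe-XO absorbance ratio 573/405 nm.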
Potency is the fitted concentration of half-maximal effect.

The chains behind the UniProt entries cited, without tags or fusion partners. Where a name states a change or a piece, a line headed by the entry shows the natural chain unless it says otherwise.
UniProt P18054: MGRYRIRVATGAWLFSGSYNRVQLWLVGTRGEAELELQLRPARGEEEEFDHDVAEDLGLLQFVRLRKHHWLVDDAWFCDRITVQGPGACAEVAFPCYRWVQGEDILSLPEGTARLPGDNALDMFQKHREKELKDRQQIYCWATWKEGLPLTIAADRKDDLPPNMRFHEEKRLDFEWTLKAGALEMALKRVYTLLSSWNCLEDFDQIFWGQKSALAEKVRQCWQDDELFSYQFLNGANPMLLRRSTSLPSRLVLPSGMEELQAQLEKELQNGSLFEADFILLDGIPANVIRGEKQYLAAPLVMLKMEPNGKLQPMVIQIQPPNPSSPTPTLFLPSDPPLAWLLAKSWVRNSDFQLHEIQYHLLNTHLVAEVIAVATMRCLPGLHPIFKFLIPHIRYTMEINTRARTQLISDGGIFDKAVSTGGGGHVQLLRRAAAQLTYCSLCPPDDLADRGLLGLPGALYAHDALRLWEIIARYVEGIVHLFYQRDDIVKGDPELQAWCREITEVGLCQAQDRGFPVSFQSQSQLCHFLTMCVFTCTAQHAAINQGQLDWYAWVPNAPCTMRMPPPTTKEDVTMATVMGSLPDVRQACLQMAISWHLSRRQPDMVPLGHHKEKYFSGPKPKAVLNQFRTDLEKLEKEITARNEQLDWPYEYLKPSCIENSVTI

Structure (SMILES)	Potency
CCCC(=O)Nc1ccc(S(=O)(=O)Nc2nccs2)cc1	inactive
O=c1[nH]c(=S)c2ncn(-c3ccccc3)c2[nH]1	inconclusive: 3.55 µM [inhibitor, full curve, poor fit]
O=C(c1ccoc1)N1CCC(Nc2cccnc2)C1 (stereo not given)	inactive
Cc1cc(Cn2nc(C(=O)NCc3cccc(Br)c3)cc2-c2ccccc2)on1	inactive
N#Cc1ccc(/C=C/C(=O)c2cc3ccccc3o2)cc1	inactive
COc1cccc(-c2nc3cnccn3c2NCCC(=O)N2CCCC(C)C2)c1 (stereo not given)	inconclusive: 79.4 µM [inhibitor, single point]
CCOC(=O)N1CCN(Cc2nc3c([nH]2)c(=O)n(C)c(=O)n3C)CC1	inconclusive: 2.51 µM [inhibitor, full curve, poor fit]
CCOCCCNc1ncnc2c1CN(C1CCNC1)C(=O)CN2C (stereo not given)	inconclusive: 5.01 µM [inhibitor, full curve]
CC1CCC(C)[S+]1c1cc(O)ccc1O (stereo not given)	active: 10 µM
Cc1cccc(C2=NN(c3ccccc3)[C@H](CO)[C@H]2c2ccc(F)cc2)c1	inconclusive: 39.8 µM [inhibitor, partial curve, poor fit]
COc1ccc(OC)c(S(=O)(=O)NCc2cccnc2)c1	inconclusive: 7.94 µM [inhibitor, partial curve, poor fit]
CC(C)(C)NC(=O)CSc1ncc(-c2ccc(F)cc2)o1	inactive
C=CCn1c(SCc2nc3ccccc3[nH]2)nnc1-c1ccc(OC)cc1	inactive
O=C(CC(CC(=O)c1ccccc1)c1ccccc1)c1ccccc1	inactive
OC(c1ccc(F)c(F)c1)c1nc(-c2cccc(F)c2)cs1 (stereo not given)	inconclusive: 112 µM [inhibitor, single point]
Cc1ccccc1/C=C1\SC(=S)N(/N=C/c2cc([N+](=O)[O-])ccc2O)C1=O	inconclusive: 31.6 µM [inhibitor, partial curve]
CCOC(=O)c1ccc(NC(=O)C(C)NS(=O)(=O)c2ccc(OC)cc2)cc1 (stereo not given)	inconclusive: 0.316 µM [inhibitor, full curve, poor fit]
O=C(O)c1ccccc1CSc1ccc(Cl)cc1	inconclusive: 35.5 µM [inhibitor, partial curve]
O=C(CN1CCOCC1)Nc1nc2cc([N+](=O)[O-])ccc2s1	inconclusive: 8.91 µM [inhibitor, partial curve, poor fit]
COc1ccc(NC(=S)N2CCN(c3ncccn3)CC2)c(OC)c1	inconclusive: 89.1 µM [inhibitor, partial curve, poor fit]
CCCC(=O)N1N=C(c2cccc(NS(C)(=O)=O)c2)CC1c1cccc(F)c1 (stereo not given)	inconclusive: 31.6 µM [inhibitor, single point]
O=C(CN1C(=O)CSC1=O)c1ccccc1	inconclusive: 0.708 µM [inhibitor, full curve, poor fit]
CCN1CCN(C(=O)CCCCCn2c(=O)[nH]c3cc(C(=O)OC)ccc3c2=O)CC1	inactive

Quoted from the listing:
CCOC(=O)c1ccc(NC(=O)C(C)NS(=O)(=O)c2ccc(OC)cc2)cc1 (stereo not given) – Potency: inconclusive: 0.316 µM [inhibitor, full curve, poor fit]
O=C(CN1C(=O)CSC1=O)c1ccccc1 – Potency: inconclusive: 0.708 µM [inhibitor, full curve, poor fit]

Further records follow:

Structure (SMILES)	Potency
COc1ccc(OC)c(S(=O)(=O)Nc2cccc3c(O)cccc23)c1	inconclusive: 141 µM [inhibitor, single point]
CCCNC(=O)CN1C(=O)NC(c2ccc(C)cc2)C2=C1COC2=O (stereo not given)	inactive
COc1cc(NC(=O)c2csc(-c3ccncc3)n2)cc(C(=O)Nc2cccc(C(F)(F)F)c2)c1	inactive
C/C(=N/Nc1cccc([N+](=O)[O-])c1)c1ccc(Br)cc1	inconclusive: 112 µM [inhibitor, single point]
N#C/C(=C\c1c[nH]c2ccccc12)c1nnc2n1CCCCC2	inactive
CC(C)C(=O)Nc1ccc(CNC(=O)C2CCC(C(C)(C)C)CC2)cc1 (stereo not given)	inconclusive: 79.4 µM [inhibitor, single point]
COC(=O)C1=C(C)N(Cc2cccc(C(F)(F)F)c2)C(=NCC2CC2)NC1c1cccc(Cl)c1 (stereo not given)	inconclusive: 50.1 µM [inhibitor, partial curve, poor fit]
CCCn1nc(C(=O)OCC(=O)N2CCCc3ccccc32)c2ccccc2c1=O	inconclusive: 44.7 µM [inhibitor, partial curve, poor fit]
CCOc1ccc(NS(=O)(=O)c2ccc3[nH]cc(C(=O)NCc4ccco4)c(=O)c3c2)cc1	inconclusive: 20 µM [inhibitor, partial curve]
Cc1cc(C)c(N2CCN(S(=O)(=O)N3CCCCCC3)CC2)c(C)c1	inactive
O=C(CN1C(=O)C(c2ccccc2)=NC12CCCC2)Nc1ccc(C(F)(F)F)cc1	inconclusive: 14.1 µM [inhibitor, partial curve]
O=C(O)c1cc(-c2ccc3ccccc3n2)nc2ccc3ccccc3c12	inactive
C=CCc1cccc2cc(C(=O)NCc3cccnc3)c(=O)oc12	inconclusive: 126 µM [inhibitor, partial curve, poor fit]
O=C(CCc1ccc(F)cc1)Nc1ccccc1-c1ccccc1	inactive
O=C(c1cc(-c2ccco2)nc2ccccc12)N(Cc1nnc(-c2ccc(Cl)cc2)o1)C1CC1	inconclusive: 35.5 µM [inhibitor, partial curve]
C=CC[N+](C)(C)CC#Cc1ccccc1	inactive
O=C(c1ccco1)N1CCN(Cc2ccc(Cl)cc2)CC1	inconclusive: 2.24 µM [inhibitor, full curve, poor fit]
Cc1nn(-c2ccc(C(C)C)cc2)c(C)c1[C@@H]1C=C[C@@H](NC(=O)NC(C)C)C1	inactive
CN1CCN(CC(=O)Nc2sc3c(c2C(=O)Nc2ccccc2)CCCC3)CC1	inconclusive: 89.1 µM [inhibitor, partial curve, poor fit]
O=C(Cc1cccs1)N1CCC(n2cc(-c3nc(C4CC4)no3)nn2)C1 (stereo not given)	inconclusive: 35.5 µM [inhibitor, partial curve]
COC(=O)C(NC(=O)c1ccccc1)(Nc1nc(C)cs1)C(F)(F)F (stereo not given)	inconclusive: 100 µM [inhibitor, partial curve, poor fit]
Cc1cc(=O)[nH]c(SCC(=O)c2ccc(C(C)C)cc2)n1	inconclusive: 35.5 µM [inhibitor, partial curve, poor fit]

Reference: PubChem BioAssay AID1671190 (National Center for Advancing Translational Sciences (NCATS), 2021)
